In paper PMC4450086:
Results are given in words; binding and its absence hold for the method and conditions named. Binding seen in cells or lysates may run through a third protein. Some results given as binding are weak or reduced against the parent protein; the word gives no strength.

Sequences of proteins named here, by UniProt entry; tags and fusion partners are left off. Residues count along the entry.
UniProt P16056, residues 25-1379: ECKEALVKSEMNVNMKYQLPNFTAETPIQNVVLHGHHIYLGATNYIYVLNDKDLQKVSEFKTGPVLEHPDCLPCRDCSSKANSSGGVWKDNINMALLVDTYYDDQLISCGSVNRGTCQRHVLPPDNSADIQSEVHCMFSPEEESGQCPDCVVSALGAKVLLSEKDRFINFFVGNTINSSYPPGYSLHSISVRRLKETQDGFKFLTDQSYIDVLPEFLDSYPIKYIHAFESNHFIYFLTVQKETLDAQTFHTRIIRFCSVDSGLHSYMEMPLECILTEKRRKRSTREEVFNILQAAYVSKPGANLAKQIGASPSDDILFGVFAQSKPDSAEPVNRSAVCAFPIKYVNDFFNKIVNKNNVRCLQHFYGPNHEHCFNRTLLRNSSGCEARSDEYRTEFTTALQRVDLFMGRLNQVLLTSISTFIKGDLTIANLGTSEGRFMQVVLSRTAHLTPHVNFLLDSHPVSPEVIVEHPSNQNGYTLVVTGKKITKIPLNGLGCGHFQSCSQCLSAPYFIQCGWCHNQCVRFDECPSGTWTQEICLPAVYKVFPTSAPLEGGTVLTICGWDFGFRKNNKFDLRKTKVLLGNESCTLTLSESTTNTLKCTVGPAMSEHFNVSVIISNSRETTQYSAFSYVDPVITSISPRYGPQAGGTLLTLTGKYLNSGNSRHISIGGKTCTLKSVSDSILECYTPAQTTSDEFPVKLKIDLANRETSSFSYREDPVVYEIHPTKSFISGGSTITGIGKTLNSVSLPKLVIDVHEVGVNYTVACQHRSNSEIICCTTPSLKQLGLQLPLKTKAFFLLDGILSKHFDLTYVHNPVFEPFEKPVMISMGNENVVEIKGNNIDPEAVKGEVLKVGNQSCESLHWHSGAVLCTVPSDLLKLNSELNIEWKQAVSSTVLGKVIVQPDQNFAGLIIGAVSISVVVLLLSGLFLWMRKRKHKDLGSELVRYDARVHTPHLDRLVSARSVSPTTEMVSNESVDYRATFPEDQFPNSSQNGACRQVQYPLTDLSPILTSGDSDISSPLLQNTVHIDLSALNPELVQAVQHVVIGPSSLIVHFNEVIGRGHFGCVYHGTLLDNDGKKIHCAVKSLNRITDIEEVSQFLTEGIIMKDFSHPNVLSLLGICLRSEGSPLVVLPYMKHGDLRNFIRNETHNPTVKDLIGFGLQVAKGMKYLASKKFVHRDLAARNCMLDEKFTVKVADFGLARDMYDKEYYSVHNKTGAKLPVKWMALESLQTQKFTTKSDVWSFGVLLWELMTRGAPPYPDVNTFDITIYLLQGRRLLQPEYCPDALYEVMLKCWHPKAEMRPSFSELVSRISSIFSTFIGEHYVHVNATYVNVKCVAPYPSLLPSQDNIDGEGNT

Biological target: tyrosine kinase c-Met receptor (mouse) (mouse (endogenous in mFGOs)) (UniProt P16056)
Assay: co-IP; lysates (M-PER) of mFGOs infected with H. pylori G27 for 24 h; anti-c-Met antibody 1:50 overnight at 4 C, Protein A/G Plus agarose; Western blot for TyrP, c-Met, CagA, CD44 and HGF

B1: CD44 (mouse) (receptor, UniProt P15379 23-778)
chain: QIDLNVTCRYAGVFHVEKNGRYSISRTEAADLCQAFNSTLPTMDQMKLALSKGFETCRYGFIEGNVVIPRIHPNAICAANHTGVYILVTSNTSHYDTYCFNASAPPEEDCTSVTDLPNSFDGPVTITIVNRDGTRYSKKGEYRTHQEDIDASNIIDDDVSSGSTIEKSTPEGYILHTYLPTEQPTGDQDDSFFIRSTLATIASTVHSKSHAAAQKQNNWIWSWFGNSQSTTQTQEPTTSATTALMTTPETPPKRQEAQNWFSWLFQPSESKSHLHTTTKMPGTESNTNPTGWEPNEENEDETDTYPSFSGSGIDDDEDFISSTIATTPRVSARTEDNQDWTQWKPNHSNPEVLLQTTTRMADIDRISTSAHGENWTPEPQPPFNNHEYQDEEETPHATSTTPNSTAEAAATQQETWFQNGWQGKNPPTPSEDSHVTEGTTASAHNNHPSQRITTQSQEDVSWTDFFDPISHPMGQGHQTESKDTDSSHSTTLQPTAAPNTHLVEDLNRTGPLSVTTPQSHSQNFSTLHGEPEEDENYPTTSILPSSTKSSAKDARRGGSLPTDTTTSVEGYTFQYPDTMENGTLFPVTPAKTEVFGETEVTLATDSNVNVDGSLPGDRDSSKDSRGSSRTVTHGSELAGHSSANQDSGVTTTSGPMRRPQIPEWLIILASLLALALILAVCIAVNSRRRCGQKKKLVINGGNGTVEDRKPSELNGEASKSQEMVHLVNKEPSETPDQCMTADETRNLQSVDMKIGV
In the case of B1, the binding is reported as “binds”.
